These are yes or no findings as the source states them, for the method shown. In cells and extracts the contact can be indirect. A result given as binding can be weak or reduced; the word gives no strength. Tags and fused reporters may be left off the sequences shown.
Legend:
[1] = biological target: T1, ER-Short β11 (β11 tag fused to the minimal Sac1 ER targeting sequence, 29 aa spacer); experiment: split reporter; split-GFP complementation after mosaic expression in D. rerio embryos, 24 hpf, fixed, confocal microscopy with mitochondrial (pTagRFP-mito) or ER (pDsRed2-ER) marker
T1 sequence: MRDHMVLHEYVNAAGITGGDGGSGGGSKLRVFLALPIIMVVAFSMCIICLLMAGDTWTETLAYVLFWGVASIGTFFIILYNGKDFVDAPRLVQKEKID

[2] = biological target: T1, ER-Short β11 (β11 tag fused to the minimal Sac1 ER targeting sequence, 29 aa spacer); experiment: split reporter; split-GFP complementation (GFP1-10 with GFP β-strand 11) in co-transfected HeLa cells (SPLICS pairs also in HEK293), confocal microscopy 48-72 h after transfection

untargeted (cytosolic) non-fluorescent GFP1-10 (domain or fragment)
binding [1]: binds
binding [2]: binds

Reference: paper PMC5988678
